The results in this text go back to PMC10844593.

Protein sequences, listed by entry. Tags and fused reporters are not part of them.
UniProt Q64261: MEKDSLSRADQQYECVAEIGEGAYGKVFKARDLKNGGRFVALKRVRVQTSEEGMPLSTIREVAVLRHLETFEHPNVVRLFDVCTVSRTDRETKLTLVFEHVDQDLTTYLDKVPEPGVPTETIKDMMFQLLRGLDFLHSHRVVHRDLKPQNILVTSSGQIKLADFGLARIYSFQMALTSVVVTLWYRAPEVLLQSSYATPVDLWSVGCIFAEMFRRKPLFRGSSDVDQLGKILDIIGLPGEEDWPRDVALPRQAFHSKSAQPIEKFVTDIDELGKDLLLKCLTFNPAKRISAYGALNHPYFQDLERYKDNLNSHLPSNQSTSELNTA

Results are given in words; binding and its absence hold for the method and conditions named. In cells and extracts the contact can be indirect. Some results given as binding are weak or reduced against the parent protein; the word gives no strength.

In this test the target is T1, Carbohydrate-responsive element-binding protein, β isoform (CHREBPβ) (mouse (endogenous in eWAT and ADSC)) (UniProt Q99MZ3).
T1 sequence: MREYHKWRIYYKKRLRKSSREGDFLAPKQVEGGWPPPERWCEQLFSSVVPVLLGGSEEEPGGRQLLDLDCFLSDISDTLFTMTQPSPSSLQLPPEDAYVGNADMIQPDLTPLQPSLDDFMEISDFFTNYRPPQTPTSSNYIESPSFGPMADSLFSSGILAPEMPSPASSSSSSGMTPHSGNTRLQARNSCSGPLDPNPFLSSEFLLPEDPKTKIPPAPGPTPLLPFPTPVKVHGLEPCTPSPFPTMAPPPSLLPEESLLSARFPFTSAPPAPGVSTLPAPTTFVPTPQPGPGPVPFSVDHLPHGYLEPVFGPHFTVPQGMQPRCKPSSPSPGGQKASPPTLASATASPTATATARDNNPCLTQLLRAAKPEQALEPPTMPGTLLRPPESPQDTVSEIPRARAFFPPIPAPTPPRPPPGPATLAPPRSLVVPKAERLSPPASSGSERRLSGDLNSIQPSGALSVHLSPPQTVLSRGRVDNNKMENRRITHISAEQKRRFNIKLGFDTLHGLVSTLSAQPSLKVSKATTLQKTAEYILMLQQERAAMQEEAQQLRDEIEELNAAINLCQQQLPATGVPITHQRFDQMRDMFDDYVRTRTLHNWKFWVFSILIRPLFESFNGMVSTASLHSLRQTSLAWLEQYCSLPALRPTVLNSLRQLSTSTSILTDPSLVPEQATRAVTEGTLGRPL
Description: co-IP; IP-Western from eWAT extracts of WT, K43M and KR (K43M;Runx1-/-) mice; AMPKα, CDK6, CHREBP or p-AMPKα immunoprecipitated and blotted with the indicated antibodies; input 50 μg extract.

“Cyclin-dependent kinase 6 (CDK6), wild type (from UniProt Q64261 1-326) (enzyme)”: the binding result was “binds”.
